No constants are given. Whether binding was seen depends on the method and setting. In cells and extracts the contact can be indirect. Some entries that bind do so weakly or less than the wild type. Tags and fused reporters may be left off the sequences shown. Values belong to the binder of their own block, whether it stands above or below them.
How the values were obtained:
[1] = molecular target: T1, HA-BCL2L12 (UniProt Q9HB09); experiment: co-IP; EYA1 truncations (N-terminal domain AA 1-322, C-terminal ED domain AA 323-592) with BCL2L12; cell line, tags and direction of the IP not stated for this panel
T1 sequence: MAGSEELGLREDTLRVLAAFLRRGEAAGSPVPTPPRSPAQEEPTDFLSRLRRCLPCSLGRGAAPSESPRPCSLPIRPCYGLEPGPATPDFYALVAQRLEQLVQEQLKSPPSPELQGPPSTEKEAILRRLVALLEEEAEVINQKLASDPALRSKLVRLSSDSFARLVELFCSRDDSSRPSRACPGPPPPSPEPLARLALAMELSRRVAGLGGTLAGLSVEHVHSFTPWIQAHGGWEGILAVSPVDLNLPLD

[2] = molecular target: T2, Flag-EYA1 (human) (UniProt Q99502); experiment: co-IP; HEK293T cells transiently transfected with Flag-EYA1 or/and HA-BCL2L12; lysates (NP-40 buffer, 4 C) immunoprecipitated with anti-Flag or anti-HA antibodies, immunoblot
T2 sequence: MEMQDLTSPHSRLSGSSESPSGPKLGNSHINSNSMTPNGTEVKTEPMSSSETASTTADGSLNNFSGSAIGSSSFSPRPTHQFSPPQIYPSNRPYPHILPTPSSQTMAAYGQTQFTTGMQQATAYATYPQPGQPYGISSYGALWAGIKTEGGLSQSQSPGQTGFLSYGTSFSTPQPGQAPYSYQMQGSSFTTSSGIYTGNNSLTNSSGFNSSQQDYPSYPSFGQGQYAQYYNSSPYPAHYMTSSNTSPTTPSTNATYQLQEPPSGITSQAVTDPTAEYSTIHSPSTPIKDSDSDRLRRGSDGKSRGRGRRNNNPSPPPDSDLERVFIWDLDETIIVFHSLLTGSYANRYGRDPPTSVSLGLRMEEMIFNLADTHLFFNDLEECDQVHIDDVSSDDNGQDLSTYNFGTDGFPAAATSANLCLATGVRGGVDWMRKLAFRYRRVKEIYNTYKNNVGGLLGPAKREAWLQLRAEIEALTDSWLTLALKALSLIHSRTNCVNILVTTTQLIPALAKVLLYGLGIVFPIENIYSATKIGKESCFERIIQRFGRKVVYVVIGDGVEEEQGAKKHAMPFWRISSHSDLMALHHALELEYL

[3] = molecular target: T1, HA-BCL2L12; experiment: as above
[4] = molecular target: T1, HA-BCL2L12; experiment: co-IP; same assay in U87MG cells transfected with Flag-EYA1 and HA-BCL2L12

binding [1]: binds
B1: EYA1 C-terminal ED domain (AA 323-592) (domain or fragment, UniProt Q99502 323-592)
chain: RVFIWDLDETIIVFHSLLTGSYANRYGRDPPTSVSLGLRMEEMIFNLADTHLFFNDLEECDQVHIDDVSSDDNGQDLSTYNFGTDGFPAAATSANLCLATGVRGGVDWMRKLAFRYRRVKEIYNTYKNNVGGLLGPAKREAWLQLRAEIEALTDSWLTLALKALSLIHSRTNCVNILVTTTQLIPALAKVLLYGLGIVFPIENIYSATKIGKESCFERIIQRFGRKVVYVVIGDGVEEEQGAKKHAMPFWRISSHSDLMALHHALELEYL

binding [2]: binds
B2: HA-BCL2L12 (protein, UniProt Q9HB09 1-250)
chain: T1 sequence

binding [3]: binds
binding [4]: binds
B3: Flag-EYA1 (enzyme, UniProt Q99502 1-592)
chain: T2 sequence

From paper PMC11781168
